Assay results published in patent US6107316A, “Method for treating protozoal infections” (priority 1998, dated 2000).
The name of at least one read-out is uncertain.

Tests used:
L929 host cells = assay: cytotoxicity towards L929 host cells (Cell Titer 96)
Description: (§1) Cytotoxicity of the test compounds towards host cells was determined using the Cell Titer 96™ it (Promega Corporation, Madison, Wis.) as follows. Cells were seeded at a concentration of 5×10^3 cells per well containing 100 μl of medium in 96-well flat-bottom microtiter plates and incubated at 37° C. in a 5% carbon dioxide environment for 4 hours. Dilutions of the test compounds prepared as described above were then added, and incubation continued for 24, 48 or 72 hours. Four hours before each of these time points the growth medium containing test compound was replaced with 100 μl of fresh medium followed by addition of 16 μl of the kit dye solution. After incubation at 37° C. for another 4 hours, 100 μl of the kit solubilization/stop solution was added to each well, the contents of the wells were mixed and the plates kept 1 hour at room temperature. The plates were then read spectrophotometrically in a plate reader at a wavelength of 570 nm. […] Atovaquone was included in the test as a standard.

HFF host cells = assay: cytotoxicity towards HFF host cells (Cell Titer 96)
Description: as §1

[1] = L929, 5.0 μg/ml, 24 hours, 1440 min

## CCC(C)(NC(=O)c1cc(Cl)cc(Cl)c1)C(=O)CCl (stereo not shown) [Compound 5]
L929 host cells; [1]
  % Inhibition of host cell growth (values in parenthesis): 5.8%
HFF host cells; 0.5 μg/ml, 24 hours, 1440 min
  % Inhibition of host cell growth (values in parenthesis): 0%
HFF host cells; 0.5 μg/ml, 72 hours, 4320 min
  % Inhibition of host cell growth (values in parenthesis): 0%
HFF host cells; 5.0 μg/ml, 48 hours, 2880 min
  % Inhibition of host cell growth (values in parenthesis): 21.1%

## CCC(C)(NC(=O)c1cc(Cl)cc(Cl)c1)C(=O)CCl (stereo not shown) [Compound 13]
L929 host cells; L929, 0.5 μg/ml, 24 hours, 1440 min
  % Inhibition of host cell growth (values in parenthesis): 7.5%
L929 host cells; L929, 0.5 μg/ml, 48 hours
  % Inhibition of host cell growth (values in parenthesis): 0%
L929 host cells; L929, 0.5 μg/ml, 72 hours
  % Inhibition of host cell growth (values in parenthesis): 0%
L929 host cells; [1]
  % Inhibition of host cell growth (values in parenthesis): 18.7%
L929 host cells; L929, 5.0 μg/ml, 48 hours, 2880 min
  % Inhibition of host cell growth (values in parenthesis): 56.2%
L929 host cells; L929, 5.0 μg/ml, 72 hours, 4320 min
  % Inhibition of host cell growth (values in parenthesis): 76.6%
HFF host cells; 0.5 μg/ml, 24 hours, 1440 min
  % Inhibition of host cell growth (values in parenthesis): 3.4%
HFF host cells; 0.5 μg/ml, 48 hours, 2880 min
  % Inhibition of host cell growth (values in parenthesis): 9.9%
HFF host cells; 0.5 μg/ml, 72 hours, 4320 min
  % Inhibition of host cell growth (values in parenthesis): 2.0%
HFF host cells; 5.0 μg/ml, 24 hours, 1440 min
  % Inhibition of host cell growth (values in parenthesis): 16.0%
HFF host cells; 5.0 μg/ml, 48 hours, 2880 min
  % Inhibition of host cell growth (values in parenthesis): 41.3%
HFF host cells; 5.0 μg/ml, 72 hours, 4320 min
  % Inhibition of host cell growth (values in parenthesis): 53.2%
